# Assay results published in the supplement of paper PMC9135407.
# Several values for one entry are separate records, joined by “and”; a condition that tells them apart may be missing. Equal values may be shown once. Where a name gives a salt, the structure may show the parent alone. ± gives the standard deviation of the averaged measurements. Some of the results follow. Plates or batches differ in their baseline, so values are only roughly comparable.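 Assay uses culture-activated primary human stellate myofibroblasts; lipid droplet recovery indicates inactivation. Measured: proportion of Hoechst-counted cells over a plate-specific Bodipy cutoff, duplicate wells, DMSO and nortriptyline as per-plate negative and positive controls. A hit scores, control-normalized, above the plate's top-tenth-percentile nortriptyline wells or ranks among its three best wells. Final well concentrations not reported.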
# Test system: primary human hepatic stellate cells (donor 1)
# Assay: percent Bodipy-positive cells; higher = more lipid droplet accumulation
# Conditions: 48 h
# [1] = library stock concentration: 10 mM
# [2] = library stock concentration: 3.33 mM
# [3] = library stock concentration: 400 uM
# [4] = library stock concentration: 2 mM
# [5] = library stock concentration: 1 mM
# [6] = library stock concentration: 10.4 mM
smiles,measurement,setting,value
Cc1[nH]c(/C=C2\C(=O)Nc3ccccc32)c(C)c1CCC(=O)O,percent Bodipy-positive cells,[1],6.19 ± 0.52%
"Cc1[nH]c(/C=C2\C(=O)Nc3ccccc32)c(C)c1CCC(=O)O [SU-6668 (TSU-68, Orantinib) (10 mM)]",percent Bodipy-positive cells,[1],15.7 ± 0.72%
"Cc1[nH]c(/C=C2\C(=O)Nc3ccccc32)c(C)c1CCC(=O)O [TSU-68 (SU6668, Orantinib)]",percent Bodipy-positive cells,[2],5.5 ± 1%
same,percent Bodipy-positive cells,[1],11.34 ± 0.057%
"Cc1[nH]c(/C=C2\C(=O)Nc3ccccc32)c(C)c1CCC(=O)O [SU-6668 (TSU-68, Orantinib) (0.4 mM)]",percent Bodipy-positive cells,[3],8.15 ± 2.3%
"Cc1[nH]c(/C=C2\C(=O)Nc3ccccc32)c(C)c1CCC(=O)O [SU-6668 (TSU-68, Orantinib) (2 mM)]",percent Bodipy-positive cells,[4],16 ± 0.55%
CN(CCOc1ccc(NS(C)(=O)=O)cc1)CCc1ccc(NS(C)(=O)=O)cc1,percent Bodipy-positive cells,[1],12 ± 4.2%
CN(CCOc1ccc(NS(C)(=O)=O)cc1)CCc1ccc(NS(C)(=O)=O)cc1 [Dofetilide],percent Bodipy-positive cells,[2],11.7 ± 6.2%
same,percent Bodipy-positive cells,library stock concentration: 4.5 mM,10.3 ± 5%
CNCC(O)c1ccc(O)c(O)c1 (racemic) [(+/-)-Epinephrine hydrochloride],percent Bodipy-positive cells,[1],30.7 ± 8.7%
CC(=O)N1CCN(c2ccc(OCC3COC(Cn4ccnc4)(c4ccc(Cl)cc4Cl)O3)cc2)CC1 (configuration not stated) [Ketoconazole],percent Bodipy-positive cells,,18.1 ± 3.6%
same,percent Bodipy-positive cells,[2],15 ± 0.56%
CC(=O)N1CCN(c2ccc(OCC3COC(Cn4ccnc4)(c4ccc(Cl)cc4Cl)O3)cc2)CC1 (configuration not stated),percent Bodipy-positive cells,[1],20.4 ± 7.9%
C#C[C@]1(O)CC[C@H]2[C@@H]3CCc4cc(OC)ccc4[C@H]3CC[C@@]21C,percent Bodipy-positive cells,[1],70.7 ± 6.8%
C#C[C@]1(O)CC[C@H]2[C@@H]3CCc4cc(OC)ccc4[C@H]3CC[C@@]21C [Ethynylestradiol 3-methyl ether],percent Bodipy-positive cells,,10.4 ± 1.4%
C#C[C@]1(O)CC[C@H]2[C@@H]3CCc4cc(OC)ccc4[C@H]3CC[C@@]21C [Mestranol],percent Bodipy-positive cells,[2],9.47 ± 0.12%
same,percent Bodipy-positive cells,library stock concentration: 6.4 mM,27.6 ± 19%
same,percent Bodipy-positive cells,[1],49.4 ± 3.7%
CC(C)NCC(O)c1ccc(NS(C)(=O)=O)cc1 (configuration not stated) [Sotalol HCl],percent Bodipy-positive cells,library stock concentration: 7.3 mM,9.99 ± 2.6%
CC(C)NCC(O)c1ccc(NS(C)(=O)=O)cc1 (configuration not stated) [Sotalol],percent Bodipy-positive cells,[2],11.6 ± 9.9%
same,percent Bodipy-positive cells,[1],13.9 ± 0.89%
CC(C)NCC(O)c1ccc(NS(C)(=O)=O)cc1 (configuration not stated) [Sotalol hydrochloride],percent Bodipy-positive cells,,6.98 ± 3%
same,percent Bodipy-positive cells,[1],7.98 ± 3.8%
CC(C)NCC(O)c1ccc(NS(C)(=O)=O)cc1 (configuration not stated) [(?)-Sotalol hydrochloride] [listing 1 of 2 here],percent Bodipy-positive cells,[1],8.18 ± 0.96%
CC(C)NCC(O)c1ccc(NS(C)(=O)=O)cc1 (configuration not stated) [(?)-Sotalol hydrochloride] [listing 2 of 2 here],percent Bodipy-positive cells,[1],12.1 ± 3.2%
CC1=C(C)C(=O)C(CCCCC#CCCCC#CCO)=C(C)C1=O,percent Bodipy-positive cells,[1],56.6 ± 13%
same,percent Bodipy-positive cells,library stock concentration: 15.3 mM,16.6 ± 0.68%
CC1=C(C)C(=O)C(CCCCC#CCCCC#CCO)=C(C)C1=O [Docebenone],percent Bodipy-positive cells,library stock concentration: 6.1 mM,10.4 ± 2%
Nc1ccc(C(=O)Nc2cccc(-c3nc(N4CCOCC4)c4oc5ncccc5c4n3)c2)cn1,percent Bodipy-positive cells,[1],98.7 ± 1.1%
CN(C)CCCCSC(=N)N,percent Bodipy-positive cells,[1],6.24 ± 4.1%
COc1ccc2cccc(CCNC(C)=O)c2c1 [Agomelatine],percent Bodipy-positive cells,[5],17.7 ± 2.3%
same,percent Bodipy-positive cells,[2],8.8 ± 0.8%
same,percent Bodipy-positive cells,[1],14.15 ± 0.11%
"CCCCCC/C=C/C=C\CCCCCCCC(=O)O [9(Z),11(E)-Conjugated Linoleic Acid]",percent Bodipy-positive cells,[5],11.5 ± 0.84%
Nc1nc2c([nH]c(=O)n2[C@H]2C[C@H](O)[C@@H](CO)O2)c(=O)[nH]1 [8-hydroxy-2'-deoxy Guanosine],percent Bodipy-positive cells,[5],11.4 ± 3.6%
COc1cc(C=O)ccc1O [Vanillin],percent Bodipy-positive cells,[2],6.39 ± 2.2%
same,percent Bodipy-positive cells,[1],20.3 ± 14%
C1=N/C2=N/c3ccc(OCCN4CCCC4)c(c3)COC/C=C/COCc3cccc(c3)C(=C1)N2 [Pacritinib],percent Bodipy-positive cells,library stock concentration: 80 uM,26.5 ± 8.6%
same,percent Bodipy-positive cells,[3],58.6 ± 4.6%
same,percent Bodipy-positive cells,[4],56.6 ± 1.7%
C1=N/C2=N/c3ccc(OCCN4CCCC4)c(c3)COC/C=C/COCc3cccc(c3)C(=C1)N2 [Pacritinib (SB1518)],percent Bodipy-positive cells,[2],94.38 ± 0.51%
same,percent Bodipy-positive cells,[1],98.1 ± 1.9%
CCCCCCCCCCCCCCCC[N+](C)(C)CCN(Cc1ccc(OC)cc1)c1ncccn1 [Thonzonium bromide],percent Bodipy-positive cells,,57.3 ± 15%
CC(C)(C)NS(=O)(=O)c1cncc(-c2cc(F)c3nc(N)nn3c2)c1,percent Bodipy-positive cells,[2],11.4 ± 4.1%
same,percent Bodipy-positive cells,[1],48.8 ± 18%
O=C(O)P(=O)(O)O [Foscarnet Sodium],percent Bodipy-positive cells,[2],7.78 ± 0.94%
same,percent Bodipy-positive cells,[1],13.2 ± 3.8%
O=C(O)P(=O)(O)O [Foscarnet sodium],percent Bodipy-positive cells,[1],21.65 ± 0.21%
same,percent Bodipy-positive cells,[6],25.1 ± 8.3%
Cc1cc2c(cc1Cl)N(C(=O)Nc1ccnc3ccccc13)CC2,percent Bodipy-positive cells,[1],93.02 ± 0.17%
CCN(CC)CCCC(C)Nc1c2ccc(Cl)cc2nc2ccc(OC)cc12 (configuration not stated) [Quinacrine hydrochloride],percent Bodipy-positive cells,[1],100%
CCN(CC)CCCC(C)Nc1c2ccc(Cl)cc2nc2ccc(OC)cc12 (configuration not stated) [Quinacrine dihydrochloride],percent Bodipy-positive cells,[1],100%
CCN(CC)CCCC(C)Nc1c2ccc(Cl)cc2nc2ccc(OC)cc12 (configuration not stated) [Quinacrine dihydrochloride dihydrate],percent Bodipy-positive cells,,98.8 ± 1.6%
CCN(CC)CCCC(C)Nc1c2ccc(Cl)cc2nc2ccc(OC)cc12 (configuration not stated) [Quinacrine 2HCl],percent Bodipy-positive cells,[2],92.7 ± 10%
same,percent Bodipy-positive cells,[1],100%
Cc1nc(C)c(Cl)c(O)c1Cl [Clopidol],percent Bodipy-positive cells,[1],49.6 ± 24%
same,percent Bodipy-positive cells,[6],9.72% and 13.4%
CCCCC[C@H](O)/C=C/[C@@H]1[C@@H](C/C=C\CCCCO)[C@@H](O)C[C@H]1O [Prostaglandin F2.alpha. Alcohol],percent Bodipy-positive cells,[5],14.6 ± 0.29%
COC(=O)[C@H]1[C@H]2C[C@@H]3c4[nH]c5cc(OC)ccc5c4CCN3C[C@H]2C[C@@H](OC(=O)c2cc(OC)c(OC)c(OC)c2)[C@@H]1OC [Reserpine],percent Bodipy-positive cells,,17.6 ± 5.7%
COc1cc2c(cc1OC)-c1cc3ccc(OC)c(OC)c3c[n+]1CC2 [Palmatine chloride],percent Bodipy-positive cells,,29.7 ± 1.8%
same,percent Bodipy-positive cells,[2],11.1 ± 2.9%
same,percent Bodipy-positive cells,[1],36.6% and 18.7%

# Retrieved one by one from the list above:
smiles,measurement,setting,value
C#C[C@]1(O)CC[C@H]2[C@@H]3CCc4cc(OC)ccc4[C@H]3CC[C@@]21C [Mestranol],percent Bodipy-positive cells,[2],9.47 ± 0.12%
"Cc1[nH]c(/C=C2\C(=O)Nc3ccccc32)c(C)c1CCC(=O)O [SU-6668 (TSU-68, Orantinib) (2 mM)]",percent Bodipy-positive cells,[4],16 ± 0.55%
